US20110207694A1, “MAMMALIAN HYPOTHALAMIC NUTRIENT MODULATION OF GLUCOSE METABOLISM” (priority 2005, published 2011)
“Also recorded” adds a separate entry of the source. Like-named read-outs stand apart in the source and are kept apart here. For at least one compound, name, drawing or mass did not settle the structure.

Key:
rats = assay: Food intake after central (ICV) glucose or lactate; type: in vivo, rat; details: co-administration / concomitant injection
[1] = tested on: Stearoyl-CoA Desaturase 1 (SCD1); assay: Liver SCD1 activity, SCD1 mRNA and LCFA-CoA measurements; type: in vivo, rat; details: ICV co-infusion with glucose
Protocol: Treatment with SCD1 ASO. Five and two days before the lipoprotein secretion studies, rats received a single intra-peritoneal injection of either SCD1 or scrambled (SCR) ASO (100 mg/kg of body weight). […] In a separate set of studies, rats received intra-portal injection of either SCD1 or SCR ASO (40 mg/kg of body weight) (Gutierrez-Juarez et al., 2006) three days before the lipoprotein secretion studies.
Liver LCFA-CoA measurements. The liver was sampled and the LCFA-CoAs were extracted from the liver and measured by high-performance liquid chromatography (HPLC) as previously described (Lam et al., 2005c).
Stearoyl-CoA Desaturase 1 (SCD1) activity. CD1 activity assays were performed essentially as described (Cohen et al., 2002) using 1-[^14C]-stearoyl-CoA as a substrate. […] Chromatographically resolved stearoyl CoA (C18:0) and oleyl-CoA (C18:1) peaks were collected and counted in a β-scintillation counter. […]
Gene expression. Stearoyl-CoA Desaturasel (SCD1) mRNA was measured by quantitative real-time PCR. […] Either 18S mRNA expression was routinely measured for normalization purposes. […] The mRNA copy number was calculated from standard curves obtained using cloned target templates (plasmid DNA) of known copy number for each gene of interest.

hepatic VLDL secretion = assay: Lipoprotein (VLDL) secretion studies with tyloxapol; NMR particle size; type: in vivo, rat
Protocol: Lipoproteins secretion and particles concentration and size measurements. Tyloxapol (600 mg/kg; ˜1 min) was intravenously injected to inhibit endogenous lipoprotein lipase. This high dose of tyloxapol ensured complete inhibition of triglyceride clearance during VLDL secretion studies. Plasma samples were taken every 30 min for triglycerides analysis and for lipoprotein profiling. Plasma VLDL particles concentration and size were determined by nuclear magnetic resonance spectroscopy (lipoprofile-II test) at Liposcience as previously described (Otvos et al., 1991; 1992). This NMR lipoprofile-II test is based on the assumption that each plasma lipoprotein particle of a particular size gives its own characteristic lipid NMR signal. The intensity of the signal is also in proportion to the concentration of the particle. The diameter range for large, medium and small VLDL is >60 nm, 35-60 nm, and 27-35 nm, respectively.
Selective hepatic branch vagotomy. The surgeries were performed as described (Lam et al., 2005c).
Treatment with SCD1 ASO. Five and two days before the lipoprotein secretion studies, rats received a single intra-peritoneal injection of either SCD1 or scrambled (SCR) ASO (100 mg/kg of body weight). […]

conscious rats [2] = assay: Circulating lactate infusion with central LDH inhibitor or KATP blocker: glucose kinetics during pancreatic clamps; details: for glucose production: central inhibitor infused with circulating lactate infusion
conscious rats [3] = assay: ICV glucose or lactate infusion with pancreatic basal insulin clamp: plasma glucose and liver glucose production; type: in vivo, rat
Source text: We hypothesize that the hypothalamic sensing of glucose-derived pyruvate is a novel regulator of endogenous glucose production (GP). […] We propose that an increase in neuronal pyruvate levels is a hypothalamic signal of nutrient availability.
Long chain fatty acids in the brain decrease glucose production (GP) by the liver via activation of hypothalamus ATP-sensitive (KATP) channels. Here we tested whether (A) direct administration of glucose in the third cerebral ventricle can alter glucose production by the liver, and (B) whether this effect requires its metabolism in the TCA cycle.

male Sprague-Dawley rats = assay: ICV infusion: plasma triglycerides and metabolites under basal and pancreatic clamp conditions; type: in vivo, rat
Source text: Animal preparation. We studied 10-week-old male Sprague-Dawley rats. Rats underwent stereotaxic surgery to indwell single catheters in the third cerebral ventricle {intracerebroventricular (ICV)(Obici et al., 2001) or bilateral catheters into the mediobasal hypothalamus (Lam et al., 2005c). One week later, we placed indwelling catheters in the internal jugular vein and carotid artery for sampling and infusion during the in vivo experiments (Obici et al., 2001). Recovery from surgery was monitored by measuring daily food intake and weight gain for 4-5 days after surgery.
Infusion protocols. […] During the ICV infusions, we monitored the plasma metabolite levels under pre-infused (0 min), basal (180-240 min) and pancreatic clamp (300-360 min) conditions. […] To examine the time-dependent effects of ICY glucose on plasma triglycerides, ICY (5 μl/h) 2 mM D-glucose or mannitol was administrated for 210 min and plasma triglyceride levels were monitored at 0, 20, 60, 120, 180, 210 min. […] Plasma triglycerides were monitored under basal, pancreatic clamp and tyloxapol-treated conditions. […]
Biochemical analyses. Plasma glucose concentrations were measured by the glucose oxidase method (Glucose Analyzer II, Beckman Instruments, Inc., Fullerton, Calif.). […] FFA concentrations were determined by an enzyme assay in accordance with the manufacturer's specifications (Waco Pure Chemical Industries. Osaka. Japan). […]

conscious rats [4] = assay: Intravenous lactate infusion with or without MBH oxamate: plasma TG and hepatic TG-VLDL production; type: in vivo, rat; details: MBH infusion with elevated circulating lactate
Protocol: Infusion protocols. The in vivo infusion experiments lasted a total of 360 min, and the experiments were carried out in rats that had their food removed ˜5 h before the experiments. Thus, at the time of the experiment, the rats are in post-absorptive state since their stomach should be completely emptied by 5 h fasting. […] This ICV glucose protocol physiologically elevate hypothalamic glucose concentration by ˜70% as previously described (Lam et al., 2005b) and is similar to that induced by a doubling of the circulating glucose levels (Lam et al., 2005b). During the ICV infusions, we monitored the plasma metabolite levels under pre-infused (0 min), basal (180-240 min) and pancreatic clamp (300-360 min) conditions. […] A basal insulin-pancreatic clamp was performed in the final 2 h (240-360 min) of the study as previously described (Lam et al., 2005b). […] To examine the time-dependent effects of ICY glucose on plasma triglycerides, ICY (5 μl/h) 2 mM D-glucose or mannitol was administrated for 210 min and plasma triglyceride levels were monitored at 0, 20, 60, 120, 180, 210 min. […] Plasma triglycerides were monitored under basal, pancreatic clamp and tyloxapol-treated conditions. […]
VLDL are decreased in the hours following an acute bout of exercise. […] To investigate the mechanism by which lactate lowers plasma TG levels, the rate of production of hepatic TG-enriched VLDL was measured.

In the case of NC(=O)C(=O)O [oxamate, reference compound], the “effect of co-administered LDH inhibitor on inhibition of food intake by central glucose or lactate” value (rats) is reported as “prevented”, the “effect of ICV co-infused inhibitor on the decrease of hepatic SCD1 mRNA and activity by ICV glucose” value [1] is reported as “abolished” and the “effect of central co-infusion of inhibitor on suppression of VLDL-triglyceride secretion by ICV glucose” value (hepatic VLDL secretion) is reported as “abolished”. For the same compound, the “glucose infusion rate to maintain euglycemia” value (conscious rats [2]; ICV inhibitor infused with IV lactate) was “decreased glucose infusion rate”, the glucose production (conscious rats [2]) was “significant increase in glucose production” and the glucose production (conscious rats [2]; listed as OXA) was “increase in glucose production”. For the same compound, the “effect of ICV co-infused LDH inhibitor or KATP blocker on the effects of ICV glucose or lactate on plasma glucose and GP” value (conscious rats [3]) was “completely eliminated the effect of lactate on GP; also recorded: abolished the effects of ICY glucose on both plasma glucose and GP; also recorded: prevented the effects of ICY lactate; also recorded: inhibited”, the “effect of ICV co-infused LDH inhibitor or KATP blocker on the effects of ICV glucose or lactate on plasma glucose and GP” value (conscious rats [3]; listed as OXA) was “inhibited” and the “effect of ICV co-infused inhibitor on the plasma triglyceride-lowering effects of ICV glucose or lactate” value (male Sprague-Dawley rats; ICV co-infusion (oxamate 50 mM, glibenclamide 100 μM)) was “abolishes the plasma triglyceride-lowering effects of glucose; also recorded: abolished the plasma triglyceride-lowering effects of lactate”. The “plasma triglyceride levels, inhibitor per se” value (male Sprague-Dawley rats; ICV inhibitor alone) was “per se did not modify triglyceride levels”, the “effect of MBH LDH inhibitor on the lowering of plasma TG and VLDL secretion by circulating lactate” value (conscious rats [4]) was “completely abolished the TG lowering effects of circulating lactate” and the “effect of MBH LDH inhibitor on the lowering of plasma TG and VLDL secretion by circulating lactate” value (conscious rats [4]; listed as LDH inhibitor) was “negated the effect of circulating lactate on plasma triglyceride levels; also recorded: entirely reversed”.
